# Results of single-concentration screens

The filed quantity is “Percent Effect” (%).
The record does not define 0% and 100%; most values in the screen are far below 50% and negative numbers occur (in some assays of this library far below -100).
This is an unselected part of the compounds tested.

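Phenotypic screen: M. tuberculosis growth, glucose 7H9 medium, 3 days; the read-out is not stated. Concentration: 500 µM. The record gives no direction; compounds that gave an IC50 in retests scored well above the rest, so higher reads as more growth inhibition. Of about 18,000 compounds tested this way, about 1,400 (7.9%) reached 50% or more in at least one test.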

With CC(C)NS(=O)(=O)c1cc(CO)ccc1F the screen gave 7.947%.
With CC(=O)N(Cc1cccc(F)c1)C1CC1 the screen gave 5.565%.
With CCc1cnc(CCN)s1 the screen gave 48.92%.
With O=C(Nc1cc(F)cc(F)c1)C1CCCCN1 (stereo not shown) the screen gave 15.39%.
With O=S(=O)(CCCF)NCc1ccncc1 the screen gave 5%.
With Cn1nc(N2CCCC2)c(=O)n(C)c1=O the screen gave 2.628%.
With Cc1ccc(CNC(=O)C2COCCO2)s1 (stereo not shown) the screen gave 7.25%.
With Cc1ccc(C(=O)NCCN)cc1F the screen gave 43.54%.
With CC(C)c1noc(CN2CCC(CO)CC2)n1 the screen gave 25.01%.
With CCN(CC)C(=O)COc1cccc(S(C)(=O)=O)c1 the screen gave 5.878%.
With CC(O)C1CCN(CCC(=O)NC(C)(C)C)CC1 (stereo not shown) the screen gave -8.451%.
With Cc1ccc(C(=O)NCC(C)N2CCCC2)o1 (stereo not shown) the screen gave 14.83%.
With Cc1ccnc(NC(=O)N2CCNC(=O)C2)c1 the screen gave 16.76%.
With CS(=O)(=O)CC1(CN)CCOCC1 the screen gave 0.2831%.
With Cn1nc(Br)c2c(N)ncnc21 the screen gave -8.058%.
With CN(C)CCNC(=O)NC1CCCCC1 the screen gave 13.76%.
With NCc1ccc(CN2CCOCC2)o1 the screen gave -5.53%.
With NCc1ccc(N2CCNC(=O)C2)cc1 the screen gave 12.31%.
With NC(=O)c1ccc(NC(=O)CCN2CC(O)C2)cc1 the screen gave 6.768%.
With NC1CC(=O)N(C2CCCCC2)C1 (stereo not shown) the screen gave 2.442%.
With NCc1nc(-c2ccc(OC(F)(F)F)cc2)no1 the screen gave 76.6%.
With COc1ncc(C)cc1N the screen gave -125.9%.
With CCN(CCn1cccn1)C(=O)c1cc(=O)cc(C)o1 the screen gave -17.7%.
With CC(C)(CN)C1(O)CCOC1 (stereo not shown) the screen gave 7.363%.
With CNC1CCCc2cccnc21 (stereo not shown) the screen gave 6.812%.
With CC(C)C(=O)NCc1ccc(S(=O)(=O)NC2CC2)cc1 the screen gave 18.37%.
With O[C@@H]1CNC[C@H](O)C1 the screen gave 5.407%.
With NCCc1nnc2ccccn12 the screen gave 0.419%.
With CCn1cncc1CN1CCCC(NC(C)=O)C1 (stereo not shown) the screen gave -2.094%.
With NCCCN1CCC(C(N)=O)CC1 the screen gave 4.854%.
With CN1CCCC1CCNC(=O)c1ccc(O)c(Cl)c1 (stereo not shown) the screen gave 0.562%.
With Cc1cccn2cc(CS(=O)(=O)CCCC#N)nc12 the screen gave 2.23%.
With Brc1cncc(C2CNCCO2)c1 (stereo not shown) the screen gave 35.81%.
With Cc1ccc(NC(=O)CN2CCCCC2=O)c(C)c1O the screen gave 7.168%.
With COCCN1C(=O)c2cccn2CC1CN (stereo not shown) the screen gave 1.664%.
With CNC(=O)NCCS(=O)(=O)NCc1ccc(F)cc1 the screen gave -1.373%.
With CN(Cc1ccccc1)C(=O)CN the screen gave 26.1%.
With CC(=O)NC(C(=O)Nc1cnn(C)c1)C1CCCC1 (stereo not shown) the screen gave -8.528%.
With CCCS(=O)(=O)NCC(O)CN1CCCC1 (stereo not shown) the screen gave -0.8749%.
With CCNc1nc(C)c(C(=O)N2CC(C)(C)[C@@](C)(O)C2)s1 the screen gave 2.814%.
With NC1CS(=O)(=O)Cc2ccccc21 (stereo not shown) the screen gave 0.6493%.
With c1ccc(OCCCNCc2ccco2)nc1 the screen gave 10.14%.
With CSc1ccc(CNCC2(C(N)=O)CCOCC2)cc1 the screen gave 8.997%.
With CN1CCCN(C(=O)c2coc(Br)c2)CC1 the screen gave 15.71%.
With O=C(c1ccco1)N1CCCN(Cc2cscn2)CC1 the screen gave 29.44%.
With Cn1ncc(C#N)c1N the screen gave 12.72%.
With Clc1ccc2nc(CN3CCNCC3)cn2c1 the screen gave 40.95%.
With CNCC(=O)NCCc1cnn(-c2ccccc2)c1 the screen gave 32.54%.
With CC(N)c1ccccc1-n1cccn1 (stereo not shown) the screen gave 18.75%.
With CCCOc1ccc(CN2CCOC(CN)C2)cc1 (stereo not shown) the screen gave 4.528%.
With CC1(C(=O)NCC(CO)Cc2cccs2)CCNCC1 (stereo not shown) the screen gave 8.209%.
With CC(C)n1ccc(CC(=O)N2CCCC2)n1 the screen gave 68.3%.
With Cc1ncccc1NS(=O)(=O)CCc1ccccc1 the screen gave 2.43%.
With CCNC(=O)Nc1cc(OC)cc(OC)c1 the screen gave 45.63%.
With CCS(=O)(=O)CCNC(=O)c1cc(CC(C)C)on1 the screen gave -12.34%.
With CCc1nnc(NCCS(=O)(=O)N(C)C)o1 the screen gave 25.95%.
With Cc1ccc(C2(O)CCNC2)cc1 (stereo not shown) the screen gave 70.89%.
With N#Cc1ccc(NCCOc2ccccc2)nc1 the screen gave 61.17%.
With NC(=O)C1CN(c2ccc3cccc(Br)c3n2)CCO1 (stereo not shown) the screen gave 24.81%.
With c1coc(CNCC2CCCO2)c1 (stereo not shown) the screen gave -1.779%.

Some entries from above, unchanged:

Result for Cc1cccn2cc(CS(=O)(=O)CCCC#N)nc12 was 2.23%.
Result for NCc1ccc(N2CCNC(=O)C2)cc1 was 12.31%.
Result for CSc1ccc(CNCC2(C(N)=O)CCOCC2)cc1 was 8.997%.

From ChEMBL document CHEMBL3988442, “University of Dundee, Small-Polar-MMV Screening Library” (2021).